Measurements from patent US20220288067A1 (University of Pennsylvania, published 2022).
These are yes or no findings as the source states them, for the method shown. Some binding calls cover weakened binding; strength is not graded here.

By UniProt entry, the sequences of proteins in these tests, tags left out. Where a name states a change or a piece, a line headed by the entry shows the natural chain unless it says otherwise.
UniProt P10275: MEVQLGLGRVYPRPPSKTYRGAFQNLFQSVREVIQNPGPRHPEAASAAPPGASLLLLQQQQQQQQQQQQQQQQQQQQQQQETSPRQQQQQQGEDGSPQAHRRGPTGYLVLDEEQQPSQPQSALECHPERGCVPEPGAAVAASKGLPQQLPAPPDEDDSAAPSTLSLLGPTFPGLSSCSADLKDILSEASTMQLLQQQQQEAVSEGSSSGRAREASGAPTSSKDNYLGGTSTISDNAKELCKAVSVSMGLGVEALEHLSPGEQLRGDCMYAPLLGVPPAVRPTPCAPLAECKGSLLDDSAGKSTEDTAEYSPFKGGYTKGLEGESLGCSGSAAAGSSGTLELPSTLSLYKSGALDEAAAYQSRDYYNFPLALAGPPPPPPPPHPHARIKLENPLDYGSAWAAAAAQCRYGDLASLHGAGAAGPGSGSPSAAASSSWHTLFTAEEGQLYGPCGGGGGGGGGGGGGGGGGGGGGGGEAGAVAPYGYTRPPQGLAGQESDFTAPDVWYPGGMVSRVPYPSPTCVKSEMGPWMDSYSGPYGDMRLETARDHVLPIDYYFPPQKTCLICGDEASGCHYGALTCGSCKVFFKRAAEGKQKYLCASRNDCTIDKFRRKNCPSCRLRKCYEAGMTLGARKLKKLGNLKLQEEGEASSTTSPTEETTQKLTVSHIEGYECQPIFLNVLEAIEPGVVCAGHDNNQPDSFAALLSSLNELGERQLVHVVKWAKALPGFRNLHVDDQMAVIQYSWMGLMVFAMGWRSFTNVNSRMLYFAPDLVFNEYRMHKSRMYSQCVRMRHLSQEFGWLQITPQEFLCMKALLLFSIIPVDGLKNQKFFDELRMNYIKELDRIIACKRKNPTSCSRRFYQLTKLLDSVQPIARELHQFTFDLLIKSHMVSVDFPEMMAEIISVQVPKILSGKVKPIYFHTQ
UniProt Q15648: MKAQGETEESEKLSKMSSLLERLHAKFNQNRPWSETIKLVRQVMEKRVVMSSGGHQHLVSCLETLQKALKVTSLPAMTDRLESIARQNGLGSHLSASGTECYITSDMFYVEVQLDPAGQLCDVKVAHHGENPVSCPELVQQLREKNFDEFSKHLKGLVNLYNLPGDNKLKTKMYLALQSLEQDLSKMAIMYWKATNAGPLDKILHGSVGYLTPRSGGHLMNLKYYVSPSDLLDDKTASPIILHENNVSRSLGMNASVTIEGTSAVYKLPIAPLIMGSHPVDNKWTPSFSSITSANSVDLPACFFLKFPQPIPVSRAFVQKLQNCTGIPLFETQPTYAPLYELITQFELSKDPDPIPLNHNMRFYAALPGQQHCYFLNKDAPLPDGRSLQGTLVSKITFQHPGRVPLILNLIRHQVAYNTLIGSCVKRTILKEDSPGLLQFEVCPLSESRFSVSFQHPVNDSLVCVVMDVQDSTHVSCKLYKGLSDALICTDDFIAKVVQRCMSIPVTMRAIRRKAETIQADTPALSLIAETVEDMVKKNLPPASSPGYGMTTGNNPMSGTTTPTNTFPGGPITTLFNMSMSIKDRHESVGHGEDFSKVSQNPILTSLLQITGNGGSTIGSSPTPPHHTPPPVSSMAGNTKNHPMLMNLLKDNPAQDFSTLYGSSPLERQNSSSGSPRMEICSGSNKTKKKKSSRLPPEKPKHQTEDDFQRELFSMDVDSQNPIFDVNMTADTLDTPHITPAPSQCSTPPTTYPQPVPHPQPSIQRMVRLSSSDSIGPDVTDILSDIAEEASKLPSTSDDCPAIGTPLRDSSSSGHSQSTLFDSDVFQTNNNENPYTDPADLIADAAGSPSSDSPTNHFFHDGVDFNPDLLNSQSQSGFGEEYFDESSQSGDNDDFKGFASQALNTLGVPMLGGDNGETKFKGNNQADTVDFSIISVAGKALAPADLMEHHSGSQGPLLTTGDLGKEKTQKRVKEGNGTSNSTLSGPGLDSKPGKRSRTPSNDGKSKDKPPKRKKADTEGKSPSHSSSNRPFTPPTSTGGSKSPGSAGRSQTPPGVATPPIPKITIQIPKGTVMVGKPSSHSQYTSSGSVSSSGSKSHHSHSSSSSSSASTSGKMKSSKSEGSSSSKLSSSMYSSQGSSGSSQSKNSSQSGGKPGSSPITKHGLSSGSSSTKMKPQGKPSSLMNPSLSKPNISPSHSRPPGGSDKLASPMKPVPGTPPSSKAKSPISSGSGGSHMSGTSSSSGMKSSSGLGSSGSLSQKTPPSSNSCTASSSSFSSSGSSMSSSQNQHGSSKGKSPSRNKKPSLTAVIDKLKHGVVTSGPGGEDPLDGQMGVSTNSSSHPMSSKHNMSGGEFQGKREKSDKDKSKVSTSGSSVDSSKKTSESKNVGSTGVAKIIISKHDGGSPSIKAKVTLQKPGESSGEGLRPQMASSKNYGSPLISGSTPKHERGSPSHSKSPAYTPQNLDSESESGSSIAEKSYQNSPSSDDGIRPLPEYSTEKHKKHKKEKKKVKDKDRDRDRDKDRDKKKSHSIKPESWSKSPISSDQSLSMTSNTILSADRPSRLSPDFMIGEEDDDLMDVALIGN

Molecular target: Androgen receptor (AR), endogenous (human) (UniProt P10275)
Test: anti-HA immunoprecipitation from nuclear extracts of LNCaP cells treated with 100 nM THZ1 for 12 h, immunoblot for AR (FIG. 19D)

binding: binds
Substance: HA-tagged MED1 T1457D phosphomimic (from UniProt Q15648 1-1581)
